Assay results: the supplement of paper PMC10849652
This is one part of the list.

Amino acid sequences for entries named in this document (tags omitted). A change or cut given only in a name is not applied to a line headed by its entry.
UniProt O60664: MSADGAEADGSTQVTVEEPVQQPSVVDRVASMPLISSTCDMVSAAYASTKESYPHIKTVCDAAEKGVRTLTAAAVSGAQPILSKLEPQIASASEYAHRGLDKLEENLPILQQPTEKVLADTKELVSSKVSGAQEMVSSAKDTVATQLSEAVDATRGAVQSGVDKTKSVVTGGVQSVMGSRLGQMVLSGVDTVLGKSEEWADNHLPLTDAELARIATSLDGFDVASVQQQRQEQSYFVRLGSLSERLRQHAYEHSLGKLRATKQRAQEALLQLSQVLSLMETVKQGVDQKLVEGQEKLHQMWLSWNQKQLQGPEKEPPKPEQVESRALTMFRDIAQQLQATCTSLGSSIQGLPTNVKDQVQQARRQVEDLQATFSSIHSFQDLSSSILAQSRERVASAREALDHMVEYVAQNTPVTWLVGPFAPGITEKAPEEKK
UniProt O60568: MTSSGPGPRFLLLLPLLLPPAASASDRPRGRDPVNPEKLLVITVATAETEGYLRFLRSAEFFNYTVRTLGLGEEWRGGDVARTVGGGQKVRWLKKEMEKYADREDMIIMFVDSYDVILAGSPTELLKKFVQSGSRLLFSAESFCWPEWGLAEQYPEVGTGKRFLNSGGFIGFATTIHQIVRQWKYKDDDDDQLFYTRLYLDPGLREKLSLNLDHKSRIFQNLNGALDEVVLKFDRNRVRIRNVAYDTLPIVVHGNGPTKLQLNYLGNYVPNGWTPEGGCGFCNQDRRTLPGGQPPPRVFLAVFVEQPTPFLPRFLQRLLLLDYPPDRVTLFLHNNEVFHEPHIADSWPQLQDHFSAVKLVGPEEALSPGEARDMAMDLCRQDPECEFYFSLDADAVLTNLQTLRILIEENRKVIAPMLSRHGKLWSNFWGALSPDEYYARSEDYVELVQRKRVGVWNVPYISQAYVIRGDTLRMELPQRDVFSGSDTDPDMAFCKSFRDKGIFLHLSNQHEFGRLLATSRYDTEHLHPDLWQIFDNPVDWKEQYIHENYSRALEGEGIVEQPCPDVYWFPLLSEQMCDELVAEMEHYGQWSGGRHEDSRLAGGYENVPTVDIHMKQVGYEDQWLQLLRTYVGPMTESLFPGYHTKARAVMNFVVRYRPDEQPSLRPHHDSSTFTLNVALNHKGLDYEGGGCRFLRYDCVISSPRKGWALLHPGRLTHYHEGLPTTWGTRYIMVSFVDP
UniProt Q9UNP9: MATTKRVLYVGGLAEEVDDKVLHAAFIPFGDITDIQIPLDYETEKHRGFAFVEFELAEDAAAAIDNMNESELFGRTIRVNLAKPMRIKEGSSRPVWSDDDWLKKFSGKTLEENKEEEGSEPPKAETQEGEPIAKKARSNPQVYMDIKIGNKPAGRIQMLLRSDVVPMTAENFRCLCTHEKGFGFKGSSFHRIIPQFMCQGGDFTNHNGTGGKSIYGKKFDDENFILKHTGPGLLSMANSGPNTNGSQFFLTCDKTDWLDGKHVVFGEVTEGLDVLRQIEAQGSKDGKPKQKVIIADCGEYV
UniProt P23284: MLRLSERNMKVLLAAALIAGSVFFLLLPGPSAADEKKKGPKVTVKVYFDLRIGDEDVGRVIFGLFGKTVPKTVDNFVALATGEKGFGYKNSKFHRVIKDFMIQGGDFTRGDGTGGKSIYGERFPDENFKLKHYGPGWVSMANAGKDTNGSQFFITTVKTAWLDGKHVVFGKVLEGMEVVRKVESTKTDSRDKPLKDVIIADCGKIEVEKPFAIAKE
UniProt Q8TF01: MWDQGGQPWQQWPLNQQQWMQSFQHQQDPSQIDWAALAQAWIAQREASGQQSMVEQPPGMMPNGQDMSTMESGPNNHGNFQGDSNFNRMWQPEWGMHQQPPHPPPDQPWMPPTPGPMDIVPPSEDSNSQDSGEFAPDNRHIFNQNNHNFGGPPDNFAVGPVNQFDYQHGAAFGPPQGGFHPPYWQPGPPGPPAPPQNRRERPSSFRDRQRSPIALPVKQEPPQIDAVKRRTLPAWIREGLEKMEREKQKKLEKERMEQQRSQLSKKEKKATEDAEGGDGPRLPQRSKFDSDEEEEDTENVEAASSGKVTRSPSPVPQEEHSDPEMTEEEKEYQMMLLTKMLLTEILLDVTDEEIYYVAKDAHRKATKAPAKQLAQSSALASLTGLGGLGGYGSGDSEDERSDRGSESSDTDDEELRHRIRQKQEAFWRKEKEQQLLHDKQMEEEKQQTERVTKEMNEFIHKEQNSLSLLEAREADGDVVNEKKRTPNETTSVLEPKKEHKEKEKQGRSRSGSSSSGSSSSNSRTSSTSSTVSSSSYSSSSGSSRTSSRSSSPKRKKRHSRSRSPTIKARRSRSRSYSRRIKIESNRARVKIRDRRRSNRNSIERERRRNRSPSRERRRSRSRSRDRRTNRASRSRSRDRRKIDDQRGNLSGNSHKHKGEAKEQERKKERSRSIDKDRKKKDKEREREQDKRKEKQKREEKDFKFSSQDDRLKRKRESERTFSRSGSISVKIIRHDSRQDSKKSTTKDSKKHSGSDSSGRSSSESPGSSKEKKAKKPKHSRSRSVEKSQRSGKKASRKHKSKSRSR
UniProt O43660: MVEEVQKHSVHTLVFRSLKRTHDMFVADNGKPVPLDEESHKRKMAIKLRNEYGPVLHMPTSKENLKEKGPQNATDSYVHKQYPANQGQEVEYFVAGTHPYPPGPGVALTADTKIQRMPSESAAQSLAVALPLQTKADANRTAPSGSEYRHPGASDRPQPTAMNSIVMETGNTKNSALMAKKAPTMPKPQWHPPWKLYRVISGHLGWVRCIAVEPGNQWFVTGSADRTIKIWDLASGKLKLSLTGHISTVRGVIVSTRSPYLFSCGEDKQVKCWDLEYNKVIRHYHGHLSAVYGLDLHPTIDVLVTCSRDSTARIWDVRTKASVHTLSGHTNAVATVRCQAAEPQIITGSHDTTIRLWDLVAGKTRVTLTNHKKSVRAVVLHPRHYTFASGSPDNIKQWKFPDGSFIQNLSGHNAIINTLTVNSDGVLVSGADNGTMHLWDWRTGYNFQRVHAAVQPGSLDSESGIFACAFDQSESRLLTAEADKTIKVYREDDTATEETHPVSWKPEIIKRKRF
UniProt Q8N490: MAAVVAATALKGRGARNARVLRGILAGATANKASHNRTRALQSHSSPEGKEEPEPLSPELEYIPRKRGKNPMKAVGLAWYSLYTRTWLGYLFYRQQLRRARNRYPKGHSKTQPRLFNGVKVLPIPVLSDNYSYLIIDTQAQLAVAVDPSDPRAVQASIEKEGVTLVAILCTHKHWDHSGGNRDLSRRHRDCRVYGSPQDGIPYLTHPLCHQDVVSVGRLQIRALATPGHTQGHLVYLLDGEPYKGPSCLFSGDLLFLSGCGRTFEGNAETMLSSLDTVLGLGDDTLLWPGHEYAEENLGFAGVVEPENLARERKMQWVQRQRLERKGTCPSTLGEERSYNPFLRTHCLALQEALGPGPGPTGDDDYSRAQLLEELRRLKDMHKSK
UniProt Q15126: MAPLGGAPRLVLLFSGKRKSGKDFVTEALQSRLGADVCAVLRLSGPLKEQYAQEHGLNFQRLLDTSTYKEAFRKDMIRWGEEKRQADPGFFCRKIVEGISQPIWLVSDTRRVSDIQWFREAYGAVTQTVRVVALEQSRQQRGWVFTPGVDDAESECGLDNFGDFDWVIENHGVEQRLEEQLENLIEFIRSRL
UniProt Q9NZ53: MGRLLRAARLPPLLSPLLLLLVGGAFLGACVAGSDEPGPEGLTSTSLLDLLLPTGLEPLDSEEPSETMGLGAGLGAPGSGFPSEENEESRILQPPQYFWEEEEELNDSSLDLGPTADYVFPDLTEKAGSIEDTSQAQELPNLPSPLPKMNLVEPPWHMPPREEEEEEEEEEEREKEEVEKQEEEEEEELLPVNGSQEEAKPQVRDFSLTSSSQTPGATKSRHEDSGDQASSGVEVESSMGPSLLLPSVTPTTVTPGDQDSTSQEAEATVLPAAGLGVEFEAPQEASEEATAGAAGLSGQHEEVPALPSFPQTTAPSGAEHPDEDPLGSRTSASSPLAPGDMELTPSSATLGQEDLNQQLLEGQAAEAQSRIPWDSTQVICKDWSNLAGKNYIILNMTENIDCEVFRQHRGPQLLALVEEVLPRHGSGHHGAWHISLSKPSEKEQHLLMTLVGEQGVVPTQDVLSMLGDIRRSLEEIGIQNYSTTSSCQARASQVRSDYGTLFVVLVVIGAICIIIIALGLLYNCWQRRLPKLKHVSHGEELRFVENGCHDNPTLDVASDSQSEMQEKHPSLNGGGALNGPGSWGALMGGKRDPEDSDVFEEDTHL
UniProt Q9NVU0: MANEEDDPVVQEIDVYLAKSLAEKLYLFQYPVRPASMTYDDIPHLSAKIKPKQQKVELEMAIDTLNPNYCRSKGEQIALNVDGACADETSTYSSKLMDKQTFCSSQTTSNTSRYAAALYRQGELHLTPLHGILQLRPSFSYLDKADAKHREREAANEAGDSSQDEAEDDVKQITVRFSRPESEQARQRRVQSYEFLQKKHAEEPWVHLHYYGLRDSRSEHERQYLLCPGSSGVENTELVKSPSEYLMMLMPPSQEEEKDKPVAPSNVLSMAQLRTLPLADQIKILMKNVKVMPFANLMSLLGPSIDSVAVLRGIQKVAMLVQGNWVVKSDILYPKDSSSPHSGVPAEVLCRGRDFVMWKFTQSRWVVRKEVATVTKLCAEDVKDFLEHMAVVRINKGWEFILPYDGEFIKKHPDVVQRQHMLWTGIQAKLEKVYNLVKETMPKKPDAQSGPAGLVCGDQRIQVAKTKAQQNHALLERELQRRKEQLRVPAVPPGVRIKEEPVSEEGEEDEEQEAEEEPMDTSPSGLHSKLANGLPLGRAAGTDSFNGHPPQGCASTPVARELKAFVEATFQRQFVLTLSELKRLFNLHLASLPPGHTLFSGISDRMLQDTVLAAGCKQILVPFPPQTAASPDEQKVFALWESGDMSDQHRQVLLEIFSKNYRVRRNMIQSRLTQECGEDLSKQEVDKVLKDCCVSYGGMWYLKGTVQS
UniProt P00491: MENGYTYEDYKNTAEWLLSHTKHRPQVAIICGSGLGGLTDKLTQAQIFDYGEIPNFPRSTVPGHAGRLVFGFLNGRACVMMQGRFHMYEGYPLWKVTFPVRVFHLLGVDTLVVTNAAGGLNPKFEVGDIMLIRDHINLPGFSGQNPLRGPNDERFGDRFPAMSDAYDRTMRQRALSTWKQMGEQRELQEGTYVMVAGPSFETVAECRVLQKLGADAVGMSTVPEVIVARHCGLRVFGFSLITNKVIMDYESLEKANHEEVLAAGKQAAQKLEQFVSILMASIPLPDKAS
UniProt Q9NRX1: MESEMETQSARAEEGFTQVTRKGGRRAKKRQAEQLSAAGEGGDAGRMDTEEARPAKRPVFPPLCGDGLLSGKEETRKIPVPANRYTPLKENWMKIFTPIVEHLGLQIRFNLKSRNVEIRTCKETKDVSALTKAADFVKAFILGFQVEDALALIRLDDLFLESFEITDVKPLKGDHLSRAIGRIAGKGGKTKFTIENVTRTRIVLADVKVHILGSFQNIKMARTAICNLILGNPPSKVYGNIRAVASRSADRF
UniProt Q9HAB8: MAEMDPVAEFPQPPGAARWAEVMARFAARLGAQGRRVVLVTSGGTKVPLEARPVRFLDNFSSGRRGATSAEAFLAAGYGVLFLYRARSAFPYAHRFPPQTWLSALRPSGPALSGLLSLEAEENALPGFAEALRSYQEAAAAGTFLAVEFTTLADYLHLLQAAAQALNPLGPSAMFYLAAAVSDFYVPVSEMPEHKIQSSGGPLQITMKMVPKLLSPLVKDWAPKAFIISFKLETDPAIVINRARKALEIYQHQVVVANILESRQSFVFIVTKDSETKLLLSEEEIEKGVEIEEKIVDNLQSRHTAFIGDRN
UniProt Q96CD2: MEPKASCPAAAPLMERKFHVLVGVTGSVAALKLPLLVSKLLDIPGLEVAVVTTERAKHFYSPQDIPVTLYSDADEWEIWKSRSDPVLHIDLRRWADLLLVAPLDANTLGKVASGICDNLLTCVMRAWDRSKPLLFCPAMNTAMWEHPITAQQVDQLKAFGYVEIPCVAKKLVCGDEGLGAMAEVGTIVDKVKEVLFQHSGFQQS
UniProt Q06203, whole entry, looked up: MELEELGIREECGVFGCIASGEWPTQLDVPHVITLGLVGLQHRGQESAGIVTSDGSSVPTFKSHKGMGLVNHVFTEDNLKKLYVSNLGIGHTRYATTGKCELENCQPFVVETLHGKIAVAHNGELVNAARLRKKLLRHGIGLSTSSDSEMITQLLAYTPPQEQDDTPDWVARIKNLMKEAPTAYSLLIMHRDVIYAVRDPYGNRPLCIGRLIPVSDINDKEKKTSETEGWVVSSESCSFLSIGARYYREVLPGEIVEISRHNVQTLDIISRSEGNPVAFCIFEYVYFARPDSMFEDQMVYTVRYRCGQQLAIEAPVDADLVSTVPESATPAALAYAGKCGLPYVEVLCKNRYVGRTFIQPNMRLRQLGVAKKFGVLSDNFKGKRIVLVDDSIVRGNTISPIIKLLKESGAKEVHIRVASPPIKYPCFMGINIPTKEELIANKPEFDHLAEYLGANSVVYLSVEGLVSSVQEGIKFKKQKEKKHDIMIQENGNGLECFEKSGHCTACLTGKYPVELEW

Columns and labels:
Assay in all cases: log2 fold change, soluble protein after heating vs DMSO (PISA); higher = thermal stabilisation; K562 cells, 10 uM, 30 min; active = over 0.2 and 3.5 SD of the protein, either way, in both replicates (recomputed)
[1] = compound: C1=CC=C(C=C1)[C@H](COC2=CC3=C(C=C2)NC(=O)N3)NC(=O)C4=CC=CN(C4=O)CC5=CC(=C(C=C5)F)F
Summary of the method: (§1)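 K562 cells at 2×10^6 cells/mL were treated for 30 min with 10 μM compound, and aliquots were heated for 3 min over 48°C-58°C before pooling. Extraction used PBS with 0.5% NP-40 at 4°C, and soluble protein was the supernatant after 21,000xg for 90 min, measured by TMTpro 16plex LC-MS/MS with channel sums equalised. Thermal stability values, relative to control samples and from duplicates, are log2 fold changes.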

[2] = compound: CC1=C(SC2=C1C(=N[C@H](C3=NN=C(N32)C)CC(=O)N)C4=CC=C(C=C4)Cl)C
Summary of the method: as §1

[3] = compound: CC1=C2C(=CC=C1)N=C(N(C2=O)C3=CC=CC=C3C)CN4C=NC5=C(N=CN=C54)N
Summary of the method: as §1

[4] = compound: Cc1sc2c(c1C)C(c1ccc(Cl)cc1)=N[C@@H](CC(=O)OC(C)(C)C)c1nnc(C)n1-2
Summary of the method: as §1

[5] = compound: c1ccc([C@@H]2C[C@H]2NC2CCNCC2)cc1
Summary of the method: as §1

Measured: log2 fold change

PLIN3 (UniProt O60664)
inactive: [1] -0.024 | [2] -0.004 | [3] -0.007 | [4] -0.017 | [5] -0.028

PLOD3 (UniProt O60568)
inactive: [1] 0.025 | [2] -0.059 | [3] -0.015 | [4] 0.038 | [5] -0.015

PPIE (UniProt Q9UNP9)
inactive: [1] -0.027 | [2] -0.022 | [3] -0.073 | [4] 0.034 | [5] 0.041

POLD3 (UniProt Q15054)
inactive: [1] -0.027 | [2] 0.14 | [3] 0.104 | [4] -0.037 | [5] -0.009

PPIB (UniProt P23284)
inactive: [1] 0.02 | [2] -0.045 | [3] 0.003 | [4] 0.004 | [5] -0.004

PNISR (UniProt Q8TF01)
inactive: [1] 0.055 | [2] -0.024 | [3] 0.008 | [4] -0.022 | [5] 0.04

PPIP5K1 (UniProt Q6PFW1)
inactive: [1] 0.018 | [2] 0.057 | [3] 0.033 | [4] -0.023 | [5] -0.016

PLRG1 (UniProt O43660)
inactive: [1] -0.048 | [2] -0.066 | [3] -0.037 | [4] 0.017 | [5] 0.086

PLXNB2 (UniProt O15031)
inactive: [1] 0.016 | [2] 0.07 | [3] 0.035 | [4] -0.021 | [5] 0.008

Quoted from above (2 entries):
PPIB (UniProt P23284)
inactive: [1] 0.02 | [2] -0.045 | [3] 0.003 | [4] 0.004 | [5] -0.004

PNISR (UniProt Q8TF01)
inactive: [1] 0.055 | [2] -0.024 | [3] 0.008 | [4] -0.022 | [5] 0.04

Further records:

PPIP5K2 (UniProt O43314)
inactive: [1] 0.015 | [2] 0.043 | [3] 0.076 | [4] -0.022 | [5] 0

PNKD isoform 2 (UniProt Q8N490)
inactive: [1] 0.012 | [2] 0.089 | [3] 0.096 | [4] 0.037 | [5] -0.011

PMVK (UniProt Q15126)
inactive: [1] -0.156 | [2] 0.004 | [3] 0.116 | [4] 0.063 | [5] 0.028

POLR2D (UniProt O15514)
inactive: [1] 0.003 | [2] 0.134 | [3] -0.006 | [4] 0.17 | [5] 0.045

PODXL2 (UniProt Q9NZ53)
inactive: [1] 0.028 | [2] 0.102 | [3] 0.065 | [4] 0.024 | [5] -0.014

PLS3 (UniProt P13797)
inactive: [1] -0.02 | [2] 0.016 | [3] 0.054 | [4] 0.009 | [5] -0.004

POLR3G (UniProt O15318)
inactive: [1] -0.006 | [2] -0.012 | [3] 0.053 | [4] 0.024 | [5] 0.047

POLR3E (UniProt Q9NVU0)
inactive: [1] -0.126 | [2] -0.004 | [3] 0.142 | [4] 0.006 | [5] -0.046

PLIN2 (UniProt Q99541)
inactive: [1] -0.063 | [2] -0.006 | [3] 0.093 | [4] 0.004 | [5] 0.015

POMK (UniProt Q9H5K3)
inactive: [1] 0.04 | [2] 0.027 | [3] -0.041 | [4] -0.067 | [5] -0.022

PNP (UniProt P00491)
inactive: [1] 0.025 | [2] 0.02 | [3] -0.001 | [4] 0.01 | [5] 0.016

PNO1 (UniProt Q9NRX1)
inactive: [1] -0.098 | [2] -0.007 | [3] -0.05 | [4] 0.203 | [5] -0.037

PPCS (UniProt Q9HAB8)
inactive: [1] -0.018 | [2] 0.043 | [3] 0.062 | [4] -0.008 | [5] 0.047

PPCDC (UniProt Q96CD2)
inactive: [1] -0.039 | [2] 0.126 | [3] 0.083 | [4] -0.047 | [5] -0.045

PPAT (UniProt Q06203)
inactive: [1] 0.014 | [2] 0.078 | [3] 0.003 | [4] -0.005 | [5] -0.011

POLR2C (UniProt P19387)
inactive: [1] -0.091 | [2] 0.125 | [3] -0.023 | [4] 0.155 | [5] -0.092
